# About 6,100 (1.1%) of roughly 580,000 compounds were called active. The inconclusive results got no clear call from the source; some entries with a clear call stand among them for comparison. Calls come from the whole dose curve; as a rule, active = well fitted inhibition curve with a large enough effect; inconclusive = small, poorly fitted or top-dose-only effect, or another doubt; inactive = no such curve, though single readings can be large or run the other way. Potencies beside an inconclusive call are fits to weak or partial responses and may not hold up.
# Chains of the proteins cited; added tags and fusions are not shown. Lines headed by an entry give the natural chain unless they say otherwise; changes in a name come on top.
# UniProt P18054: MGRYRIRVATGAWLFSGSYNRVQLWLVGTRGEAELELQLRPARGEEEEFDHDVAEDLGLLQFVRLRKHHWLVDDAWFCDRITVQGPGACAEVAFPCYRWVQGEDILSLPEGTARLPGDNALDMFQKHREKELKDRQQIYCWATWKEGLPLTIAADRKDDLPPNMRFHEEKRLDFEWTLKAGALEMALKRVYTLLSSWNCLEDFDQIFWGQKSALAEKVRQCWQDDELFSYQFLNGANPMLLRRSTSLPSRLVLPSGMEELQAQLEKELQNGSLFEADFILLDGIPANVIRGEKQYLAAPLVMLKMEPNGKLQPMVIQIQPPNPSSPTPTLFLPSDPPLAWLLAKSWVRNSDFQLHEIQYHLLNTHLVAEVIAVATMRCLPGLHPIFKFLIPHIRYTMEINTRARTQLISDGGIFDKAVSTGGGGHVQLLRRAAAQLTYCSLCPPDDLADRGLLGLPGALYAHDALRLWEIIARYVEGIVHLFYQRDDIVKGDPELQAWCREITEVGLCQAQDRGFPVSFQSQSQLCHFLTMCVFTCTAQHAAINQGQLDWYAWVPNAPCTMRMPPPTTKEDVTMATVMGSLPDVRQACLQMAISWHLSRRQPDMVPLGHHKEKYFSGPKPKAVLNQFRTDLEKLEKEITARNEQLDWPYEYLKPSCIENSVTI
# Biological target: Polyunsaturated fatty acid lipoxygenase ALOX12 (Homo sapiens) (UniProt P18054)
# Assay: Primary qHTS assay for inhibitors of human arachidonate 12S-lipoxygenase (ALOX12): Round 2
# Details: purified 12hLO, xylenol orange hydroperoxide absorbance; activity change, negative = inhibition: at 108 µM (top of the series) unless noted
# Method in brief: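 Purified human 12hLO at 150 nM in 25 mM Hepes, 0.01% Triton X-100, pH 7.0, preincubated 15 min at room temperature with compound. Reaction started with 40 uM arachidonic acid, 30 min at room temperature. Hydroperoxide measured by Fe-xylenol orange, 573/405 nm absorbance ratio.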
# % is set by controls: 0 for no effect and ±100 for the full control effect; potency is the fitted concentration of half-maximal effect.
Compound,Potency,"activity change, negative = inhibition"
C[n+]1c(-c2ccccc2)cc2c(=Cc3ccccc3)c3ccccc3n21,"inconclusive: 44.7 µM [inhibitor, partial curve, poor fit]",–
CC(=O)OC(C(=O)N1CCN(c2ccc(F)cc2)CC1)c1ccccc1 (configuration not stated),–,inactive: 29.4%
c1ccc(CSc2cc3ccccc3[nH]2)cc1,"inconclusive: 100 µM [inhibitor, partial curve, poor fit]",–
CC1=C([N+](=O)[O-])C(c2cccc(Br)c2)C2=C(N1)c1ccccc1C2=O (configuration not stated),"inconclusive: 22.4 µM [inhibitor, partial curve]",–
Cc1coc2c(C)c3oc(=O)c(CCC(=O)NCCC(=O)O)c(C)c3cc12,–,inactive: 14.7%
Cc1cccnc1C(NC(=O)C1CCN(Cc2ccc3ccccc3n2)CC1)c1ccc(Cl)cc1 (configuration not stated),"inconclusive: 35.5 µM [inhibitor, partial curve, poor fit]",–
CC(C)C[C@H](NC(=O)c1nc[nH]c1C(=O)N1CCN(c2ccccc2)CC1)C(=O)OCc1ccccc1,–,inactive: 8.32%
CCOc1ccc(CC(=O)Nc2sc(Cc3ccccc3)cc2C(N)=O)cc1OCC,"inconclusive: 35.5 µM [inhibitor, partial curve, poor fit]",–
COC(=O)C1=C(C)N(Cc2ccccc2C(F)(F)F)C(=NCc2ccc3c(c2)OCO3)NC1c1cccc(F)c1 (configuration not stated),"inconclusive: 50.1 µM [inhibitor, partial curve, poor fit]",–
CCOc1ccc(NC(=O)CC2C(=O)N(c3cccc(C)c3)C(=O)N2CCC2=CCCCC2)cc1 (configuration not stated),"inconclusive: 25.1 µM [inhibitor, partial curve, poor fit]",–
NC(=O)c1ccc(Cn2c(C(=O)c3ccc(Cl)cc3)c3ccccc3[n+]2[O-])cc1,"inconclusive: 50.1 µM [inhibitor, partial curve, poor fit]",–
Cc1c(NC(=S)NCc2ccc(F)cc2)cccc1[N+](=O)[O-],"inconclusive: 56.2 µM [inhibitor, partial curve, poor fit]",–
Cc1ccc2c(NC(=S)NC(=O)c3ccccc3)cccc2n1,"inconclusive: 35.5 µM [inhibitor, full curve, poor fit]",–
O=C(Nc1ncn(Cc2cccc(F)c2)n1)c1cc(S(=O)(=O)N2CCCC2)c(Cl)cc1Cl,–,inactive: 9.18%
O=C1ON=C(c2ccc([N+](=O)[O-])cc2)/C1=C/c1ccccc1O,"inconclusive: 31.6 µM [inhibitor, single point]",–
CCc1ccc(CN(Cc2ccco2)C(=O)c2ccc(C)cc2)cc1,"inconclusive: 56.2 µM [inhibitor, partial curve, poor fit]",–
O=C(NC1CCCCC1)C1CCCN(CCCc2nc3ccccc3o2)C1 (configuration not stated),"inconclusive: 39.8 µM [inhibitor, partial curve, poor fit]",–
Cc1ccc(S(=O)(=O)n2nc(C)c(S(=O)(=O)N3CCCCC3)c2C)cc1,"inconclusive: 7.08 µM [inhibitor, full curve, poor fit]",–
CCOc1ccccc1NC(=O)CSc1n[nH]c(N)n1,"inconclusive: 112 µM [inhibitor, partial curve, poor fit]",–
CN(Cc1ccccc1)C(=O)CNC(=O)C1CCCN(S(=O)(=O)c2ccc(F)cc2)C1 (configuration not stated),–,inactive: 16%
CC(=O)N(Cc1cccnc1)c1nc2cc(C)cc(C)c2s1,–,inactive: -25.7%
COc1ccc(C(=O)/C(C#N)=C\c2cccc(Cl)c2Cl)cc1,"inconclusive: 22.4 µM [inhibitor, partial curve, poor fit]",–
Cc1ccc(-n2c(=O)[nH]c3sc4c(c3c2=O)CCCC4)cc1,"inconclusive: 50.1 µM [inhibitor, partial curve, poor fit]",–

Compound,Potency,"activity change, negative = inhibition"
O=C(CN(CCO)Cc1ccccc1)N1CCN(S(=O)(=O)c2ccccc2)CC1,"inconclusive: 35.5 µM [inhibitor, partial curve, poor fit]",–
COc1cccc(OC)c1OCCCc1c(C)n[nH]c1C,"inconclusive: 44.7 µM [inhibitor, partial curve]",–
CN(CC(=O)Nc1cccc(F)c1)C(=O)CCc1ncc(-c2ccc(F)cc2)o1,–,inactive: -2.91%
COc1cc(OC)c(NC(=O)CN(C)S(=O)(=O)c2ccc3c(c2)CCCC(=O)N3)cc1Cl,"inconclusive: 224 µM [inhibitor, partial curve, poor fit]",–
Cc1ccc(CNC(=O)C2CCC(=O)N(CC3CCCCC3)C2)o1 (configuration not stated),"inconclusive: 79.4 µM [inhibitor, single point]",–
O=c1ccc2ccccc2c2ccccc12,"inconclusive: 100 µM [inhibitor, partial curve, poor fit]",–
COc1ccc(CC(=O)Nc2ccc(C(=O)Nc3ccccc3C(=O)O)cc2)cc1OC,–,inactive: -15.8%
O=C(/C=C/c1ccco1)NC1=NCCS1,–,inactive: -4.51%
CCCCCNC(=O)C(c1ccc(OC)cc1)n1c(=O)c(-c2ccco2)nc2ccccc21 (configuration not stated),active: 5.62 µM,–
c1ccc(C2[C@H]3CN(Cc4cccnc4)[C@H](c4ccccc4)C34CC2(c2ccccc2)C4)cc1 (some centres not stated),–,inactive: -5.17%
CCC(CC)=NNC(=O)C1CC1c1ccccc1 (configuration not stated),–,inactive: 15.4%
CCc1ccc(C(=O)c2cn(CC(=O)Nc3cccc(C)c3C)c3nc(C)ccc3c2=O)cc1,"inconclusive: 158 µM [inhibitor, partial curve, poor fit]",–
O=C1C=CC(=NN=C(c2ccccc2)c2ccccc2)C=C1,"inconclusive: 56.2 µM [inhibitor, partial curve, poor fit]",–
CCOC(=O)c1oc2cccc(O)c2c1CN1CCOCC1,"inconclusive: 35.5 µM [inhibitor, partial curve, poor fit]",–
COc1ccccc1N1C(=O)[C@@H]2[C@H](C1=O)[C@H](C(=O)c1ccc(OC(C)=O)cc1)N1N=CC=C[C@@H]21,"inconclusive: 25.1 µM [inhibitor, single point]",–
CN(CCc1ccccc1)c1cc2c(c3c1ccn3C)C1CCC2O1 (configuration not stated),"inconclusive: 100 µM [inhibitor, single point]",–
CCOC(=O)c1nnn(-c2nc(N(C)C)nc(N(C)C)n2)c1C,–,inactive: 0%
COC(=O)N1CCC2(CCN(Cc3ccc(C#N)cc3)CC2)CC1,–,inactive: 5.95% [at 57.4 µM]
O=S(=O)(Nc1ccc(O)c2ccccc12)c1cccs1,active: 31.6 µM,–
Cc1cc2nc(CSCC(=O)Nc3ccccc3)cc(=O)n2o1,–,inactive: -21.1%
COc1cc(C(=O)Nc2nnc(C(C)C)s2)cc(Cl)c1OCC(C)C,–,inactive: -8.57%
N#Cc1sc(-c2cccc(Cl)c2)cc1N,–,inactive: -18.4%
O=C(Cc1ccc(Br)cc1)NCCc1ccc(F)cc1,"inconclusive: 126 µM [inhibitor, single point]",–

Compound,Potency,"activity change, negative = inhibition"
NC(=O)c1ccccc1N/C=C1\CCCCC1=O,"inconclusive: 39.8 µM [inhibitor, partial curve]",–
Cc1ccc(OCC(=O)Nc2ccc(N3CCN(C(=O)c4ccco4)CC3)cc2)cc1C,–,inactive: -2.95%
CCN1CCc2c(sc(NC(=O)Nc3ccc(Cl)cc3)c2C(N)=O)C1,"inconclusive: 28.2 µM [inhibitor, partial curve, poor fit]",–
Cn1cnnc1-c1nn(C)c2c1CN(C(=O)c1cc3ccccc3[nH]1)CC2,–,inactive: 12.9%
O=S1(=O)C=C(N2CCC3(CC2)OCCO3)c2ccccc21,–,inactive: 8.95%
CCc1nc(N2CCN(C(=O)c3ccco3)CC2)c(C#N)c2c1COC(C)(C)C2,–,inactive: -16.3%
Cc1cccc(Nc2nc(NCc3ccco3)c3ccccc3n2)c1,"inconclusive: 50.1 µM [inhibitor, partial curve, poor fit]",–
Cc1ccccc1C(=O)N1CCCCC1CCN1CCCCC1 (configuration not stated),–,inconclusive: -34.2% [inhibitor]
COCCCNC(=S)N/N=C/c1ccc(N(C)C)cc1,"inconclusive: 50.1 µM [inhibitor, partial curve, poor fit]",–
COc1cccc(N=C2SC(C(=O)Nc3cccc(Cl)c3)CC(=O)N2C)c1 (configuration not stated),"inconclusive: 44.7 µM [inhibitor, partial curve, poor fit]",–
CCOC(=O)c1cnc2c(ccc3ccccc32)c1Nc1ccc(OC)cc1OC,"inconclusive: 50.1 µM [inhibitor, partial curve, poor fit]",–
COc1cc(/C=C/C(=O)OCCOc2ccc(Br)cc2)ccc1O,"inconclusive: 44.7 µM [inhibitor, partial curve, poor fit]",–
CCOC(=O)N1CCC(N2CCN(S(=O)(=O)c3ccc(Cl)cc3)CC2)CC1,"inconclusive: 7.08 µM [inhibitor, full curve]",–
COc1ccc(S(=O)(=O)N(C)C[C@H]2Oc3ccc(NC(=O)Nc4ccccc4)cc3C(=O)N([C@H](C)CO)C[C@@H]2C)cc1,–,inactive: -12.1%
COC(=O)CSc1nc(C)cc(C)n1,–,inactive: -9.31%
O=C(O)Cc1ccc2sc(-c3ccccc3)nc2c1,–,inactive: -5.36%
Cc1ccc(NS(=O)(=O)c2ccc(C(=O)NCc3ccc(S(N)(=O)=O)cc3)cc2)cc1,"inconclusive: 100 µM [inhibitor, single point]",–
Cc1cccc(-n2c(=O)[nH]c3c(C(N)=O)nc(-c4ccccc4Cl)nc32)c1,"inconclusive: 5.62 µM [inhibitor, partial curve, poor fit]",–
CCN(CC)CCCn1c2c(c(SCC(=O)Nc3ccc4c(c3)OCCO4)nc1=O)CCC2,"inconclusive: 35.5 µM [inhibitor, partial curve, poor fit]",–
COC(=O)c1ccccc1COc1cccn2c(N(C)C(=O)CCC3CCCC3)c(C)nc12,"inconclusive: 3.55 µM [inhibitor, full curve, poor fit]",–
Cc1c(N2C(=O)/C(=C/c3cccc4ccccc34)SC2=S)c(=O)n(-c2ccccc2)n1C,–,inactive: 14.9%

# Quoted at random: 4 records from the list, in no set order.
Compound,Potency,"activity change, negative = inhibition"
c1ccc(CSc2cc3ccccc3[nH]2)cc1,"inconclusive: 100 µM [inhibitor, partial curve, poor fit]",–
COc1cc(/C=C/C(=O)OCCOc2ccc(Br)cc2)ccc1O,"inconclusive: 44.7 µM [inhibitor, partial curve, poor fit]",–
CCc1nc(N2CCN(C(=O)c3ccco3)CC2)c(C#N)c2c1COC(C)(C)C2,–,inactive: -16.3%
COC(=O)N1CCC2(CCN(Cc3ccc(C#N)cc3)CC2)CC1,–,inactive: 5.95% [at 57.4 µM]
